Results as given in the supplement of paper PMC10849652.
This is one part of the list.

Amino acid sequences for entries named in this document (tags omitted). A change or cut given only in a name is not applied to a line headed by its entry.
UniProt P55290: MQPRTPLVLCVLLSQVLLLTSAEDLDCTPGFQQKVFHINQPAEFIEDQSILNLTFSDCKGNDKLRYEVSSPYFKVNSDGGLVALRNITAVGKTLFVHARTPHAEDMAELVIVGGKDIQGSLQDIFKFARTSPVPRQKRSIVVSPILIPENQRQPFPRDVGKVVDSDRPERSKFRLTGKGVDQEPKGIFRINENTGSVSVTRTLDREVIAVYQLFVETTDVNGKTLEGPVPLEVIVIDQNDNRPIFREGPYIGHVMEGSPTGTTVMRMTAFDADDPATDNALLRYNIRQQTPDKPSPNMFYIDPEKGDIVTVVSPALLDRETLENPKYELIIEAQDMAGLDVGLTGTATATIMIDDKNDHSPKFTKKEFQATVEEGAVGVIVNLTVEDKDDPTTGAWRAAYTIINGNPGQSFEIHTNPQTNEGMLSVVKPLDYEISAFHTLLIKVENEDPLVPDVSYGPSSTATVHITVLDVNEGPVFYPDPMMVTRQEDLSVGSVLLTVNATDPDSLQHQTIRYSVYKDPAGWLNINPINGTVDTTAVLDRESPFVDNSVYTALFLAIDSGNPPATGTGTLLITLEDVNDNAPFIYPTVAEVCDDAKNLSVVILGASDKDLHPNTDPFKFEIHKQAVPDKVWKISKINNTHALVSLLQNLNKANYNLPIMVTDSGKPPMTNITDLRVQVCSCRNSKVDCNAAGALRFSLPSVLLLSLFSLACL
UniProt Q8IW35: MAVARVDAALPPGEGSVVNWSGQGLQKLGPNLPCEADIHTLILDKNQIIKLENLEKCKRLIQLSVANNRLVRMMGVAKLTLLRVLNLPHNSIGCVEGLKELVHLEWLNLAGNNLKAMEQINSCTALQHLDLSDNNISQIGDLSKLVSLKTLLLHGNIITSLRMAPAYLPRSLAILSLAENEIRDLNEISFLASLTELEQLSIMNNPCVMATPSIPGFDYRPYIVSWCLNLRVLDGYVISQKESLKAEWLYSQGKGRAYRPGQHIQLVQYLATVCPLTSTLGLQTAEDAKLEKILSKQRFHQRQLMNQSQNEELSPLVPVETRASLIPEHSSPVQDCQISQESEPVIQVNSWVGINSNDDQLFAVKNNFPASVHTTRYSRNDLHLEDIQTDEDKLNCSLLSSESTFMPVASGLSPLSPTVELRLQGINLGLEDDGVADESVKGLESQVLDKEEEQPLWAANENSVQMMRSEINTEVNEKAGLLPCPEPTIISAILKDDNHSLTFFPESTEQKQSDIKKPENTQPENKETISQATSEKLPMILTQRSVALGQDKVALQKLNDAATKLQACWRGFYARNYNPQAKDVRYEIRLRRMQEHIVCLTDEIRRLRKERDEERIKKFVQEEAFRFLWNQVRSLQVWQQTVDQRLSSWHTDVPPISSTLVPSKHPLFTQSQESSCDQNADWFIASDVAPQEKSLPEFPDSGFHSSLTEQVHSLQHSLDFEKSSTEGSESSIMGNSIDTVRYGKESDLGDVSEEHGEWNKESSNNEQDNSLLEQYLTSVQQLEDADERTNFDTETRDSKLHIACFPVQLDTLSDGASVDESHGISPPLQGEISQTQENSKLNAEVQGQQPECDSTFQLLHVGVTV
UniProt Q9NSP4: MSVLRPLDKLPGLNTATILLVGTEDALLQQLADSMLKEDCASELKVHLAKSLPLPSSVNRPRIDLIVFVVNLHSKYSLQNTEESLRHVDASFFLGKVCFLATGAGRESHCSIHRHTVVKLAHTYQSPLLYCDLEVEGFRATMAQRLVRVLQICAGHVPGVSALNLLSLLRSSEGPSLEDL
UniProt A8MT69: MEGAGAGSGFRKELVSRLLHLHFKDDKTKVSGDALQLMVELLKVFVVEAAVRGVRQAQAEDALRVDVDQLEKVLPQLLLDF
UniProt Q9UKI2, whole entry, looked up: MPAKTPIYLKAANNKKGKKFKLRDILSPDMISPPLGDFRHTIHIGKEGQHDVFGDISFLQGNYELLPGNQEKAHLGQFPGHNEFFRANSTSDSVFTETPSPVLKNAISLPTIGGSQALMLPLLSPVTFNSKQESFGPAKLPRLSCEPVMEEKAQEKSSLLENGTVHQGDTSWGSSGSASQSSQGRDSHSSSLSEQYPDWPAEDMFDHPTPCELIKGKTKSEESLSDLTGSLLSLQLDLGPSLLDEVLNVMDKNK
UniProt P53567: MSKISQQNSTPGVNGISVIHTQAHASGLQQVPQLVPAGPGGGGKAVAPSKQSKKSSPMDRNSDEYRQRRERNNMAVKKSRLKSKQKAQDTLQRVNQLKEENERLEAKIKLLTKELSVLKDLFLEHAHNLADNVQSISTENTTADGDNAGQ
UniProt Q86XR8: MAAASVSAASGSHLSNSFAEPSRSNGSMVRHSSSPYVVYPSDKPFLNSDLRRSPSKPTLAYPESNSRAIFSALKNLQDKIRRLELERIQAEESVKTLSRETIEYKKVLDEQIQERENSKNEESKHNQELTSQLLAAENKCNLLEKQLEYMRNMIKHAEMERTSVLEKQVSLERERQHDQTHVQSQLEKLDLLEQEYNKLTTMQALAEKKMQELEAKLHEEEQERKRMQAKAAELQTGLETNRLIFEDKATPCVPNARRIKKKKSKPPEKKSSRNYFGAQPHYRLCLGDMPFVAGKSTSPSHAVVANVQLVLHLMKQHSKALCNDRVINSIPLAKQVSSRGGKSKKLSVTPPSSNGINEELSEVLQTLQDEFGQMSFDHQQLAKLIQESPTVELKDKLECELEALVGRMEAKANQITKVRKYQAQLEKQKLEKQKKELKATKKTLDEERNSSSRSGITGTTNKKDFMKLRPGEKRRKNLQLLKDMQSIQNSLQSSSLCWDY
UniProt Q99459: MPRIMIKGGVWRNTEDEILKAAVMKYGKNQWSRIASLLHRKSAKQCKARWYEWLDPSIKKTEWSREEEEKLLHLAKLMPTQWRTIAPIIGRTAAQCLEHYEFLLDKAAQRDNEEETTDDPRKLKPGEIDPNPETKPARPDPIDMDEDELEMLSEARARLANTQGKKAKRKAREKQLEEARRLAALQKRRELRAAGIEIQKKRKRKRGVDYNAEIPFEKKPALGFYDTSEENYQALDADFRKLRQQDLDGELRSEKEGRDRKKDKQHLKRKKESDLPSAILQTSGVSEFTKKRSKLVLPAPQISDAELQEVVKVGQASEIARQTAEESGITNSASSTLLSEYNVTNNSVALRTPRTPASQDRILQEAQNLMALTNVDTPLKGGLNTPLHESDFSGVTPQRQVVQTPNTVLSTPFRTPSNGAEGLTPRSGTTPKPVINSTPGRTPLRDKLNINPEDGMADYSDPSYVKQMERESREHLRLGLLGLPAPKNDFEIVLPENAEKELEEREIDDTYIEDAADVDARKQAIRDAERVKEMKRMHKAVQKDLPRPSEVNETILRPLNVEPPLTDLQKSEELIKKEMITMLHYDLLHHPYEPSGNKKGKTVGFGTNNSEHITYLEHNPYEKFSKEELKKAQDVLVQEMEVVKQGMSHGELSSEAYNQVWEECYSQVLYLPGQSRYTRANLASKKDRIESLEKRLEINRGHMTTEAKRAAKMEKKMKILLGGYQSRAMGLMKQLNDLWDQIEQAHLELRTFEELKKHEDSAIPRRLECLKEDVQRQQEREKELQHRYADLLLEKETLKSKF
UniProt Q71F23: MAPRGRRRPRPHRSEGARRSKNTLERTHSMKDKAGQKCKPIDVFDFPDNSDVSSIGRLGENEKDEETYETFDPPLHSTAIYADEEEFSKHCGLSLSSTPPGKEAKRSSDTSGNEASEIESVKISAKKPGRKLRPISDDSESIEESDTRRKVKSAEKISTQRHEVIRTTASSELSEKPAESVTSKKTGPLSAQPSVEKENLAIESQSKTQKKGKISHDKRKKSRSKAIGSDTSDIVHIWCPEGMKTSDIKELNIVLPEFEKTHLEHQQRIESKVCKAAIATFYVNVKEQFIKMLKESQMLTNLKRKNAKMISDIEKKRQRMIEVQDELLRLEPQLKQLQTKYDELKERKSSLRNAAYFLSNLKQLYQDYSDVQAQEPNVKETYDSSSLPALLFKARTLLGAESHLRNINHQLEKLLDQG
UniProt Q96HQ2: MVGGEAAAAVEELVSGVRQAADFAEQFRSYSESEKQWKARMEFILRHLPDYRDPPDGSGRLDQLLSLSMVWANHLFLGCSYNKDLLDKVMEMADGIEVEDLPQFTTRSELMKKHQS
UniProt O00311: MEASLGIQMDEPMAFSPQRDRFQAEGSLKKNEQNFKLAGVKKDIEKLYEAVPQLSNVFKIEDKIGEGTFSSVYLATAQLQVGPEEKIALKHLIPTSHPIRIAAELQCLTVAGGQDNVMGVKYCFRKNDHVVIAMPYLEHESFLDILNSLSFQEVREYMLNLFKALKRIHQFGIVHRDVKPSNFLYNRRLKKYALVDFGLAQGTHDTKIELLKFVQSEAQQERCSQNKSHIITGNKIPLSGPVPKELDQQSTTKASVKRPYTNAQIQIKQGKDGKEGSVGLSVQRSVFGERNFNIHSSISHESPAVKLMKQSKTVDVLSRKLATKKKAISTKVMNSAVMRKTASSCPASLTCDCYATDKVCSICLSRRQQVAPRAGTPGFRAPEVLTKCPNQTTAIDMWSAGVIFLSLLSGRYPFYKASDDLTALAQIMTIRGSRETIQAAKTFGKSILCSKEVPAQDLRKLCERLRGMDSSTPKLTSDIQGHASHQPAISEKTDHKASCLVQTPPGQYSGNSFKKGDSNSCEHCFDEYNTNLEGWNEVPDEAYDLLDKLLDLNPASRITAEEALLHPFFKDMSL
UniProt Q69YH5: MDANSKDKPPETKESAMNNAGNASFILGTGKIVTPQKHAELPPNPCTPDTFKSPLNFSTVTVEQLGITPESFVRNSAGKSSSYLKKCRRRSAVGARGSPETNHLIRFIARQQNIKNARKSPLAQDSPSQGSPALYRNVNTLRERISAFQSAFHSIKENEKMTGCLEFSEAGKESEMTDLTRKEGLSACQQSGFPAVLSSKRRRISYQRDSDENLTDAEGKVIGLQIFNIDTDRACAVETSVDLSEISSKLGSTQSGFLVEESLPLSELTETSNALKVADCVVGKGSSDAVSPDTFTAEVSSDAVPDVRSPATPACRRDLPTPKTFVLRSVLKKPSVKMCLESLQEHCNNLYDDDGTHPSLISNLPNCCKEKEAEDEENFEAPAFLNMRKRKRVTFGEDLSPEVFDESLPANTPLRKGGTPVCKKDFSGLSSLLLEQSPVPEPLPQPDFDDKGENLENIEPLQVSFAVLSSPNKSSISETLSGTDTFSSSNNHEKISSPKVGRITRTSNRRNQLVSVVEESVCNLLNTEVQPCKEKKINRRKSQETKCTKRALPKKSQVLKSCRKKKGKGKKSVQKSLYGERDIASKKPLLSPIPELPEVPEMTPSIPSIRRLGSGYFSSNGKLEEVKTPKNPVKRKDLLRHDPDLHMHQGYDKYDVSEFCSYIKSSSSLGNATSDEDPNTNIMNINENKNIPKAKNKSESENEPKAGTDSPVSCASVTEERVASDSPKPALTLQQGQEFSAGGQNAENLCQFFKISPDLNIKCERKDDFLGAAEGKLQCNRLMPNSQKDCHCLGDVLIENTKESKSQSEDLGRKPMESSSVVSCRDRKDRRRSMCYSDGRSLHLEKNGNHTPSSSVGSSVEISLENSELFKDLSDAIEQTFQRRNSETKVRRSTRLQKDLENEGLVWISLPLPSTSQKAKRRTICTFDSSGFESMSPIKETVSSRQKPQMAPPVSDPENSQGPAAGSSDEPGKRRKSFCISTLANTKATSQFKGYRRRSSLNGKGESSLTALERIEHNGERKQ
UniProt Q7Z7K6: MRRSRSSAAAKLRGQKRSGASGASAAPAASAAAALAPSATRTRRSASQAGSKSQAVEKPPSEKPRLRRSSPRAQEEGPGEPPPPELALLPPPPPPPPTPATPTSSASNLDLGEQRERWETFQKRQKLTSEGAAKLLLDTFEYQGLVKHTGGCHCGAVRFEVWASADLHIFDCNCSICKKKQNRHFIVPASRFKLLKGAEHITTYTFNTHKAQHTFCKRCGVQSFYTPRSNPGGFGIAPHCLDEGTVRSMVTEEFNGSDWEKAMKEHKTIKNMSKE
UniProt O75419: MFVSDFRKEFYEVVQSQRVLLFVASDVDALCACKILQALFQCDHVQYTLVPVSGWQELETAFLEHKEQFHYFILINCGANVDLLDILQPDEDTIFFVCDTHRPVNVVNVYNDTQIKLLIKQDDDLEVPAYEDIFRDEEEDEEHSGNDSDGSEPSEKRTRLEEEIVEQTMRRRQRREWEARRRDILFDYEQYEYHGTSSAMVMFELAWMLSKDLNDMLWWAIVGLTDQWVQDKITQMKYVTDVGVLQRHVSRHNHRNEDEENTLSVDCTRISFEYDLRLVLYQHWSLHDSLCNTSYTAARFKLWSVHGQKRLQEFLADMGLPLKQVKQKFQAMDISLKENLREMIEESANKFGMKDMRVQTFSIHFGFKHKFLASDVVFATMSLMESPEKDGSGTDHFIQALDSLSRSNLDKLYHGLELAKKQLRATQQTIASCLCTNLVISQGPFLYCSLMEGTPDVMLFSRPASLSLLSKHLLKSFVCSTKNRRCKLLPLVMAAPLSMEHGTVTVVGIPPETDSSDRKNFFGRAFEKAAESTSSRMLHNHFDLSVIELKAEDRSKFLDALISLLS

Legend:
Assay in all cases: log2 fold change, soluble protein after heating vs DMSO (PISA); higher = thermal stabilisation; K562 cells, 10 uM, 30 min; active = over 0.2 and 3.5 SD of the protein, either way, in both replicates (recomputed)
[1] = compound: Cc1nc(Nc2ncc(C(=O)Nc3c(C)cccc3Cl)s2)cc(N2CCN(CCO)CC2)n1 [dasatinib]
Outline: (§1)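 K562 cells at 2×10^6 cells/mL were treated with 10 μM compound for 30 min. Aliquots were heated for 3 min across 48°C-58°C, pooled, and extracted in PBS with 0.5% NP-40 at 4°C; soluble protein was the supernatant after 21,000xg for 90 min. Soluble protein was quantified by TMTpro 16plex LC-MS/MS with channel sums equalised, and reported as log2 fold change in thermal stability against DMSO controls, with values from duplicates.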

[2] = compound: Cc1cn(-c2cc(NC(=O)c3ccc(C)c(Nc4nccc(-c5cccnc5)n4)c3)cc(C(F)(F)F)c2)cn1 [nilotinib]
Outline: as §1

[3] = compound: Cc1nc(Nc2n[nH]c3c2CN(C(=O)N[C@H](CN(C)C)c2ccccc2)C3(C)C)c2sccc2n1
Outline: as §1

[4] = compound: Cc1ncc(-c2ccnc(Nc3ccc(S(C)(=O)=O)cc3)n2)n1C(C)C
Outline: as §1

[5] = compound: Cn1cc(-c2ccc3c(c2)CCN3C(=O)Cc2cccc(C(F)(F)F)c2)c2c(N)ncnc21
Outline: as §1

[6] = compound: Cn1cc(-c2ccc3nnc(C(F)(F)c4ccc5ncccc5c4)n3n2)cn1
Outline: as §1

[7] = compound: Cn1cncc1[C@@](N)(c1ccc(Cl)cc1)c1ccc2c(c1)c(-c1cccc(Cl)c1)cc(=O)n2C [tipifarnib]
Outline: as §1

[8] = compound: NC(=O)Nc1cc(-c2cccc(F)c2)sc1C(=O)N[C@H]1CCCNC1
Outline: as §1

[9] = compound: NC(=O)c1cnc(N[C@@H]2CCCC[C@@H]2N)nc1Nc1cccc(-n2nccn2)c1
Outline: as §1

[10] = compound: NCC(=O)Nc1ccc(-n2nc(C(F)(F)F)cc2-c2ccc3c(ccc4ccccc43)c2)cc1
Outline: as §1

[11] = compound: Nc1ccccc1NC(=O)c1ccc(CNC(=O)OCc2cccnc2)cc1 [entinostat]
Outline: as §1

[12] = compound: O=C(CCCCCCNC(=O)c1cnc(N(c2ccccc2)c2ccccc2Cl)nc1)NO [citarinostat]
Outline: as §1

[13] = compound: O=C1NC(=O)C(c2cnc3ccccn23)=C1c1cn2c3c(cc(F)cc13)CN(C(=O)N1CCCCC1)CC2
Outline: as §1

[14] = compound: c1cc(OCCN2CCCCC2)cc(-c2n[nH]c3ccc(-c4nnc[nH]4)cc23)c1
Outline: as §1

[15] = compound: Cc1cccc(CC(=O)N2CCc3c2ccc(-c2cn(C)c4ncnc(N)c24)c3F)n1
Outline: as §1

[16] = compound: O=C(CCCCCCC(=O)Nc1ccccc1)NO [vorinostat]
Outline: as §1

[17] = compound: FC(F)(F)c1ccc(/C=C/c2nc(COc3ccc(CCCCn4ccnn4)cc3)co2)cc1 [mubritinib]
Outline: as §1

[18] = compound: NC1(c2ccc(-c3nc4ccn5c(=O)[nH]nc5c4cc3-c3ccccc3)cc2)CCC1
Outline: as §1

[19] = compound: O=C(O)c1ccc2c(c1)nc(Nc1cccc(Cl)c1)c1ccncc12 [silmitasertib]
Outline: as §1

Measured: log2 fold change

CDH13 isoform 4 (UniProt P55290)
inactive: [1] 0.115

CEP97 isoform 2 (UniProt Q8IW35)
inactive: [2] 0.119 | [3] -0.044 | [1] -0.099 | [4] 0.049 | [5] 0.057 | [6] -0.094 | [7] 0.056 | [8] -0.056 | [9] 0.055 | [10] -0.126 | [11] 0.004 | [12] 0.114 | [13] 0.099 | [14] 0.032

CENPM (UniProt Q9NSP4)
inactive: [1] 0.003

CENPX (UniProt A8MT69)
inactive: [8] -0.05 | [11] 0.068 | [12] 0.112 | [14] -0.183

CHD1 (UniProt O14646)
inactive: [15] -0.075 | [9] -0.095 | [16] 0.008 | [13] 0.243

CER1 (UniProt O95813)
inactive: [15] -0.389 | [16] -0.876

CEND1 (UniProt Q8N111)
inactive: [6] -0.01 | [7] 0.088 | [8] -0.122 | [9] -0.068 | [11] 0.102

CDC42EP3 (UniProt Q9UKI2)
inactive: [17] 0.204 | [18] -0.104 | [19] 0.025 | [13] -0.01

CHD1L (UniProt Q86WJ1)
inactive: [15] -0.1 | [8] -0.126 | [10] -0.361 | [11] -0.051 | [16] 0.157

CHMP2A (UniProt M0R1T5)
inactive: [7] -0.084 | [17] 0.192 | [9] 0.104 | [18] -0.225 | [19] -0.081

CENPJ (UniProt Q9HC77)
inactive: [6] 0.061 | [7] 0.186 | [8] -0.028 | [9] 0.084 | [11] -0.219 | [13] -0.055

CEBPG (UniProt P53567)
inactive: [15] -0.136 | [2] 0.186 | [3] 0.017 | [4] -0.021 | [5] -0.027 | [6] -0.019 | [7] 0.133 | [9] -0.07 | [16] -0.158 | [12] -0.141 | [14] -0.286

CEP57 (UniProt Q86XR8)
inactive: [15] -0.042 | [2] -0.051 | [3] -0.354 | [4] -0.365 | [5] -0.095 | [17] -0.067 | [8] -0.226 | [18] 0.415 | [11] -0.111 | [16] 0.077 | [19] 0.343

CDC5L (UniProt Q99459)
inactive: [15] -0.068 | [1] -0.041 | [5] -0.201 | [6] -0.086 | [17] -0.166 | [8] -0.193 | [9] 0.064 | [18] 0.073 | [10] -0.301 | [11] -0.076 | [16] -0.001 | [12] -0.122 | [19] 0.104 | [14] -0.098

CEP350 (UniProt Q5VT06)
inactive: [15] 0.064 | [2] -0.065 | [3] -0.169 | [1] 0 | [4] 0.017 | [5] -0.095 | [6] 0.149 | [7] -0.035 | [17] 0.063 | [8] -0.128 | [9] -0.153 | [18] -0.175 | [11] 0.127 | [16] -0.052 | [12] -0.023 | [19] 0.099 | [13] 0.166 | [14] -0.147

CENPU (UniProt Q71F23)
inactive: [1] 0.138 | [7] 0.075 | [8] 0.249 | [9] 0.133 | [11] -0.161 | [13] 0.097

CDKN2AIPNL (UniProt Q96HQ2)
inactive: [2] 0.013 | [3] 0.036 | [4] -0.057

CDC7 (UniProt O00311)
inactive: [10] 1.36

CDNF (UniProt Q49AH0)
inactive: [1] -0.048 | [10] 0.015

CDCA2 (UniProt Q69YH5)
inactive: [15] -0.065 | [2] 0.164 | [3] -0.114 | [4] 0.042 | [5] 0.159 | [6] -0.215 | [7] 0.182 | [17] -0.256 | [8] -0.034 | [9] -0.096 | [18] -0.003 | [10] 0.037 | [11] -0.11 | [16] 0 | [12] -0.27 | [19] 0.133 | [13] 0.035 | [14] 0.243

CENPV (UniProt Q7Z7K6)
inactive: [15] -0.044 | [5] -0.118 | [6] -0.24 | [7] 0.114 | [8] 0.043 | [11] 0.074 | [16] 0.099 | [13] 0.318

CDH2 (UniProt P19022)
inactive: [15] -0.595 | [7] 0.193 | [16] -1.15

CDC45 isoform 3 (UniProt O75419)
inactive: [15] 0.07 | [2] -0.287 | [3] -0.198 | [1] -0.141 | [4] -0.102 | [5] -0.042 | [6] -0.057 | [7] -0.153 | [8] 0.179 | [9] -0.014 | [11] 0.06 | [16] 0.012 | [12] 0.133 | [13] 0.024 | [14] -0.377

CEBPZ (UniProt Q03701)
inactive: [15] -0.079 | [1] 0.009 | [5] -0.476 | [17] -0.154 | [8] -0.203 | [18] 0.331 | [10] -0.264 | [11] -0.008 | [16] 0.185 | [19] -0.125

Random excerpt: two records from the list, in no set order.
CDH2 (UniProt P19022)
inactive: [15] -0.595 | [7] 0.193 | [16] -1.15

CDCA2 (UniProt Q69YH5)
inactive: [15] -0.065 | [2] 0.164 | [3] -0.114 | [4] 0.042 | [5] 0.159 | [6] -0.215 | [7] 0.182 | [17] -0.256 | [8] -0.034 | [9] -0.096 | [18] -0.003 | [10] 0.037 | [11] -0.11 | [16] 0 | [12] -0.27 | [19] 0.133 | [13] 0.035 | [14] 0.243

The list continues.

CDR2L (UniProt Q86X02)
inactive: [15] 0.038 | [1] -0.136 | [5] 0.033 | [6] -0.304 | [9] -0.071 | [10] -0.125 | [16] 0.102 | [12] 0.032 | [14] -0.128
